Measurements as given in patent US20150005347A1, “NITROGEN-CONTAINING HETEROCYCLIC DERIVATIVE HAVING 2-IMINO GROUP AND PEST CONTROL AGENT INCLUDING THE SAME” (MEIJI SEIKA PHARMA CO., LTD., priority 2012, published 2015).
Some of these results come from one statement about several compounds together. For some assays here: The name of at least one read-out is uncertain.

Columns and labels:
Type in all cases: in vivo
Aphis gossypii = assay: Pest control test of Aphis gossypii, cucumber leaf disk foliar spray; details: first instar larvae, three days after release
Description: Test Example 3 Pest Control Test of Aphis gossypii
(§1) A leaf disk having a diameter of 2.0 cm was cut out from a cucumber in pot culture, and a drug solution of the compound of the present invention at a predetermined concentration, which had been prepared so as to be a 50% acetone water (0.05% Tween20 available), was sprayed to the leaf disk. After an air drying process, first instar larvae were released thereto. Thereafter, the larvae were left to stand in a thermostatic chamber (16 hours of light period-8 hours of dark period) at 25° C. […] Test in duplicate.
(§2) Mortality of larvae(%)={number of dead larvae/(number of survived larvae+number of dead larvae)}×100

Laodelphax striatella = assay: Pest control test of Laodelphax striatella, wheat seedling root treatment; details: seven days after release
Plutella xylostella = Plutella xylostella control test, cabbage leaf disk foliar spray; details: second instar larvae, three days after release
Description: Test Example 1 Plutella xylostella Control Test
as §1, with “5.0” for “2.0”, “cabbage” for “cucumber”, “second” for “first”
mortality larvae(%)={number of dead larvae/(number of survived larvae+number of dead larvae)}×100

[1] = test system: Frankliniella occidentalis; assay: Pest control test of Frankliniella occidentalis, kidney bean leaf disk foliar spray; details: first instar larvae, three days after release
Text: Test Example 7 Pest Control Test of Frankliniella occidentalis
as §1, with “2.8” for “2.0”, “kidney bean” for “cucumber”
as §2

## FC(F)(F)C(=NOCc1ccccc1)N=c1ccccn1Cc1ccc(Cl)nc1 [Compound 1-510]
Aphis gossypii; foliar treatment at 500 ppm
  mortality of larvae: ≥ 80%

## CC(C)C(=O)ON=C(N=c1ccccn1Cc1ccc(Cl)nc1)C(F)(F)F [Compound 1-514]
Laodelphax striatella; 20 μg/seedling
  mortality of larvae: ≥ 80%
Aphis gossypii; foliar treatment at 20 ppm
  mortality of larvae: ≥ 80%
Aphis gossypii; foliar treatment at 100 ppm
  mortality of larvae: ≥ 80%
Plutella xylostella; foliar treatment at 100 ppm
  mortality of larvae: ≥ 80%

## S=C(N=c1ccccn1Cc1ccc(Cl)nc1)C1CC1 [Compound 1-40]
Aphis gossypii; foliar treatment at 100 ppm
  mortality of larvae: ≥ 80%

## CCCNC(=O)O/N=C(/N=c1\ccccn1Cc1ccc(Cl)nc1)C(F)(F)F [Compound 1-534, N-[1-((6-chloropyridin-3-yl)methyl)pyridin-2(1H)-ylidene]-2,2,2-trifluoro-N′-((propylcarbamoyl)oxy)acetimidamide]
Laodelphax striatella; 20 μg/seedling
  mortality of larvae: ≥ 80%

## O=C(ON=C(N=c1ccccn1Cc1ccc(Cl)nc1)C(F)(F)F)Oc1ccccc1 [Compound 1-527]
Laodelphax striatella; 2 μg/seedling
  mortality of larvae: ≥ 80%
Plutella xylostella; foliar treatment at 100 ppm
  mortality of larvae: ≥ 80%

## O=C(NCc1ccccc1)ON=C(N=c1ccccn1Cc1ccc(Cl)nc1)C(F)(F)F [Compound 1-536]
Plutella xylostella; foliar treatment at 100 ppm
  mortality of larvae: ≥ 80%

## CS(=O)(=O)ON=C(N=c1ccccn1Cc1ccc(Cl)nc1)C(F)(F)F [Compound 1-528]
Laodelphax striatella; 2 μg/seedling
  mortality of larvae: ≥ 80%
Laodelphax striatella; 20 μg/seedling
  mortality of larvae: ≥ 80%
Aphis gossypii; foliar treatment at 500 ppm
  mortality of larvae: ≥ 80%
Plutella xylostella; foliar treatment at 500 ppm
  mortality of larvae: ≥ 80%

## CCCC(C)N=C(N=c1ccccn1Cc1ccc(Cl)nc1)C(F)(F)F (centres unmarked) [Compound 1-661]
Aphis gossypii; foliar treatment at 100 ppm
  mortality of larvae: ≥ 80%
Plutella xylostella; foliar treatment at 500 ppm
  mortality of larvae: ≥ 80%

## O=C(N=c1cccc(O)n1Cc1ccc(Cl)nc1)C(F)(F)F [Compound 179-2]
Plutella xylostella; foliar treatment at 500 ppm
  mortality of larvae: ≥ 80%

## O=C(NCCCl)ON=C(N=c1ccccn1Cc1ccc(Cl)nc1)C(F)(F)F [Compound 1-535]
Laodelphax striatella; 20 μg/seedling
  mortality of larvae: ≥ 80%
Plutella xylostella; foliar treatment at 100 ppm
  mortality of larvae: ≥ 80%

## C=CCCOC(=O)N=c1ccccn1Cc1ccc(Cl)nc1 [Compound 1-647]
Laodelphax striatella; 20 μg/seedling
  mortality of larvae: ≥ 80%

## O=C(ON=C(/N=c1\ccccn1Cc1ccc(Cl)nc1)C(F)(F)F)c1ccccc1 [Compound 1-519, N-(benzoyloxy)-N-[1-((6-chloropyridin-3-yl)methyl)pyridin-2(1H)-ylidene]-2,2,2-trifluoroacetimidamide]
Laodelphax striatella; 2 μg/seedling
  mortality of larvae: ≥ 80%
Laodelphax striatella; 20 μg/seedling
  mortality of larvae: ≥ 80%

## O=C(N=c1ccccn1Cc1ccc(Cl)nc1Cl)C(F)(F)F [Compound 577-2]
Aphis gossypii; foliar treatment at 100 ppm
  mortality of larvae: ≥ 80%
Aphis gossypii; foliar treatment at 500 ppm
  mortality of larvae: ≥ 80%

## FC(F)(F)C(=NC1CCCc2ccccc21)N=c1ccccn1Cc1ccc(Cl)nc1 (centres unmarked) [Compound 1-664]
Aphis gossypii; foliar treatment at 20 ppm
  mortality of larvae: ≥ 80%
Plutella xylostella; foliar treatment at 100 ppm
  mortality of larvae: ≥ 80%

## S=C(CCc1ccccc1)N=c1ccccn1Cc1ccc(Cl)nc1 [Compound 1-35]
Aphis gossypii; foliar treatment at 100 ppm
  mortality of larvae: ≥ 80%

## C=CCON=C(/N=c1\ccccn1Cc1ccc(Cl)nc1)C(F)(F)F [Compound 1-507, N′-(aryloxy)-N-[1-((6-chloropyridin-3-yl)methyl)pyridin-2(1H)-ylidene]-2,2,2-trifluoroacetimidamide]
Laodelphax striatella; 2 μg/seedling
  mortality of larvae: ≥ 80%

## N#Cc1cccc(Cn2ccccc2=NC(=O)C(F)(F)F)c1 [Compound 13-2]
Aphis gossypii; foliar treatment at 500 ppm
  mortality of larvae: ≥ 80%

## COc1ccc(=NC(=O)C(F)(F)F)n(Cc2ccc(Cl)nc2)c1 [Compound 555-2]
Aphis gossypii; foliar treatment at 100 ppm
  mortality of larvae: ≥ 80%
Aphis gossypii; foliar treatment at 500 ppm
  mortality of larvae: ≥ 80%

## CCC(=O)ON=C(N=c1ccccn1Cc1ccc(Cl)nc1)C(F)(F)F [Compound 1-512]
Laodelphax striatella; 20 μg/seedling
  mortality of larvae: ≥ 80%
Aphis gossypii; foliar treatment at 20 ppm
  mortality of larvae: ≥ 80%
Aphis gossypii; foliar treatment at 100 ppm
  mortality of larvae: ≥ 80%
Plutella xylostella; foliar treatment at 100 ppm
  mortality of larvae: ≥ 80%

## Cc1ccc(S(=O)(=O)ON=C(N=c2ccccn2Cc2ccc(Cl)nc2)C(F)(F)F)cc1 [Compound 1-531]
Laodelphax striatella; 2 μg/seedling
  mortality of larvae: ≥ 80%
Laodelphax striatella; 20 μg/seedling
  mortality of larvae: ≥ 80%
Aphis gossypii; foliar treatment at 100 ppm
  mortality of larvae: ≥ 80%
Aphis gossypii; foliar treatment at 500 ppm
  mortality of larvae: ≥ 80%
Plutella xylostella; foliar treatment at 500 ppm
  mortality of larvae: ≥ 80%

## C#CCC(=O)N=c1ccccn1Cc1ccc(Cl)nc1 [Compound 1-15]
Aphis gossypii; foliar treatment at 100 ppm
  mortality of larvae: ≥ 80%
[1]; foliar treatment at 500 ppm
  mortality of larvae: ≥ 80%

## Cc1cccc(=NC(=O)C(F)(F)F)n1CC1CCOC1 (centres unmarked) [Compound 488-2]
Aphis gossypii; foliar treatment at 100 ppm
  mortality of larvae: ≥ 80%
Aphis gossypii; foliar treatment at 500 ppm
  mortality of larvae: ≥ 80%
[1]; foliar treatment at 100 ppm
  mortality of larvae: ≥ 80%
[1]; foliar treatment at 500 ppm
  mortality of larvae: ≥ 80%

## COC(=O)ON=C(N=c1ccccn1Cc1ccc(Cl)nc1)C(F)(F)F [Compound 1-523]
Laodelphax striatella; 2 μg/seedling
  mortality of larvae: ≥ 80%
Laodelphax striatella; 20 μg/seedling
  mortality of larvae: ≥ 80%
Aphis gossypii; foliar treatment at 100 ppm
  mortality of larvae: ≥ 80%
Aphis gossypii; foliar treatment at 500 ppm
  mortality of larvae: ≥ 80%
Plutella xylostella; foliar treatment at 100 ppm
  mortality of larvae: ≥ 80%
Plutella xylostella; foliar treatment at 500 ppm
  mortality of larvae: ≥ 80%

## O=C(N=c1cnccn1Cc1ccc(Cl)nc1)C(F)(F)F [Compound 201-2]
Aphis gossypii; foliar treatment at 100 ppm
  mortality of larvae: ≥ 80%
Aphis gossypii; foliar treatment at 500 ppm
  mortality of larvae: ≥ 80%

## C=CC(=O)N=c1ccccn1Cc1ccc(Cl)nc1 [Compound 1-14]
Aphis gossypii; foliar treatment at 20 ppm
  mortality of larvae: ≥ 80%
Aphis gossypii; foliar treatment at 100 ppm
  mortality of larvae: ≥ 80%

## CCCC(CCC)N=C(N=c1ccccn1Cc1ccc(Cl)nc1)C(F)(F)F [Compound 1-686]
Aphis gossypii; foliar treatment at 100 ppm
  mortality of larvae: ≥ 80%
Plutella xylostella; foliar treatment at 500 ppm
  mortality of larvae: ≥ 80%
[1]; foliar treatment at 500 ppm
  mortality of larvae: ≥ 80%

## CCC(=S)N=c1ccccn1Cc1ccc(Cl)nc1 [Compound 1-37]
Aphis gossypii; foliar treatment at 20 ppm
  mortality of larvae: ≥ 80%
Aphis gossypii; foliar treatment at 100 ppm
  mortality of larvae: ≥ 80%

## C#CCC(=O)ON=C(N=c1ccccn1Cc1ccc(Cl)nc1)C(F)(F)F [Compound 1-518]
Laodelphax striatella; 2 μg/seedling
  mortality of larvae: ≥ 80%
Aphis gossypii; foliar treatment at 20 ppm
  mortality of larvae: ≥ 80%
Aphis gossypii; foliar treatment at 100 ppm
  mortality of larvae: ≥ 80%
Plutella xylostella; foliar treatment at 100 ppm
  mortality of larvae: ≥ 80%

## O=C(N=c1ccccn1Cc1ccc(Cl)nc1)C1CC1(F)F (centres unmarked) [Compound 1-10]
Aphis gossypii; foliar treatment at 100 ppm
  mortality of larvae: ≥ 80%

## O=C(N=c1ccncn1Cc1ccc(Cl)nc1)C(F)(F)F [Compound 212-2]
Laodelphax striatella; 2 μg/seedling
  mortality of larvae: ≥ 80%
Aphis gossypii; foliar treatment at 100 ppm
  mortality of larvae: ≥ 80%
Aphis gossypii; foliar treatment at 500 ppm
  mortality of larvae: ≥ 80%
[1]; foliar treatment at 100 ppm
  mortality of larvae: ≥ 80%
[1]; foliar treatment at 500 ppm
  mortality of larvae: ≥ 80%

## O=C(N=c1ccccn1Cc1ccc(Cl)[n+]([O-])c1)C(F)(F)F [Compound 580-2]
Aphis gossypii; foliar treatment at 20 ppm
  mortality of larvae: ≥ 80%

## CCC(C)N=C(N=c1ccccn1Cc1ccc(Cl)nc1)C(F)(F)F (centres unmarked) [Compound 1-660]
Aphis gossypii; foliar treatment at 100 ppm
  mortality of larvae: ≥ 80%
Plutella xylostella; foliar treatment at 500 ppm
  mortality of larvae: ≥ 80%
[1]; foliar treatment at 500 ppm
  mortality of larvae: ≥ 80%

## FC(F)(F)C(=S)N=c1ccccn1CC1CCOC1 (centres unmarked) [Compound 11-20]
Aphis gossypii; foliar treatment at 100 ppm
  mortality of larvae: ≥ 80%
Aphis gossypii; foliar treatment at 500 ppm
  mortality of larvae: ≥ 80%

## O=C(COCc1ccccc1)N=c1ccccn1Cc1cccnc1 [Compound 578-644]
Aphis gossypii; foliar treatment at 20 ppm
  mortality of larvae: ≥ 80%
Aphis gossypii; foliar treatment at 100 ppm
  mortality of larvae: ≥ 80%
Aphis gossypii; foliar treatment at 500 ppm
  mortality of larvae: ≥ 80%

## O=C(N=c1ccncn1Cc1cnc(Cl)s1)C(F)(F)F [Compound 213-2]
Aphis gossypii; foliar treatment at 100 ppm
  mortality of larvae: ≥ 80%
Aphis gossypii; foliar treatment at 500 ppm
  mortality of larvae: ≥ 80%

## FC(F)(F)C(=S)N=c1ccccn1Cc1ccc(C(F)(F)F)nc1 [Compound 10-20]
Aphis gossypii; foliar treatment at 100 ppm
  mortality of larvae: ≥ 80%

## O=C(COCc1ccccc1)N=c1ccccn1Cc1ccc(Cl)nc1 [Compound 1-644]
Aphis gossypii; foliar treatment at 20 ppm
  mortality of larvae: ≥ 80%
Aphis gossypii; foliar treatment at 100 ppm
  mortality of larvae: ≥ 80%
Aphis gossypii; foliar treatment at 500 ppm
  mortality of larvae: ≥ 80%

## COc1cccc(=NC(=O)C(F)(F)F)n1Cc1ccc(Cl)nc1 [Compound 566-2]
Aphis gossypii; foliar treatment at 100 ppm
  mortality of larvae: ≥ 80%
Aphis gossypii; foliar treatment at 500 ppm
  mortality of larvae: ≥ 80%
[1]; foliar treatment at 500 ppm
  mortality of larvae: ≥ 80%

## O=C(N=c1cc(O)ccn1Cc1ccc(Cl)nc1)C(F)(F)F [Compound 157-2]
Aphis gossypii; foliar treatment at 100 ppm
  mortality of larvae: ≥ 80%

## O=C(N=c1ccc([N+](=O)[O-])cn1Cc1ccc(Cl)nc1)C(F)(F)F [Compound 511-2]
Aphis gossypii; foliar treatment at 100 ppm
  mortality of larvae: ≥ 80%
Aphis gossypii; foliar treatment at 500 ppm
  mortality of larvae: ≥ 80%

## O=C(N=c1cccnn1Cc1cnc(Cl)s1)C(F)(F)F [Compound 224-2]
Aphis gossypii; foliar treatment at 100 ppm
  mortality of larvae: ≥ 80%
Plutella xylostella; foliar treatment at 500 ppm
  mortality of larvae: ≥ 80%
[1]; foliar treatment at 500 ppm
  mortality of larvae: ≥ 80%
